This series can be described thus: peptide made by a vendor. The following applies: whole synthesis.

Consider one substance from US6815421B1 (Osteopharm Inc., priority 2001, dated 2004).

Turning to “Xaa1-Thr-GIn-Glu-His-Thr-Ala-Glu-Cys-Xaa10, where Xaa1 is N-acetyl arginine and Xaa10 is lysinamide”, the “final HPLC purity” value is reported as “at least 95% pure”.
